From patent US10500202B2, “Pharmaceutical formulation containing tadalafil” (Druggability Technologies IP Holdco Limited, priority 2016, dated 2019)
Some of these results come from one statement about several compounds together.

Experiment: Comparative dissolution test (water, simulated gastric fluid, FaSSIF)
Assay type: physicochemical
Conditions: 0.2 mg/mL, then simulated gastric fluid, over two hours, 0.1 μm filter

SMILES: CN1CC(=O)N2[C@H](c3ccc4c(c3)OCO4)c3[nH]c4ccccc4c3C[C@@H]2C1=O [Tadalafil]
- Dissolution of Tadalafil: ≤ 10%
